Results from PubChem BioAssay AID504467 (National Center for Advancing Translational Sciences (NCATS), 2011).
The campaign covered roughly 330,000 compounds. About 7,700 (2.3%) were called active. This list was built around the results that the source calls inconclusive (neither active nor inactive); the mix of calls is not that of the screen. The call rests on the fitted dose curve; in most records, active means well fitted inhibition curve with a large enough effect; inconclusive means small, poorly fitted or top-dose-only effect, or effect the other way; inactive means flat fitted curve, though single readings scatter. Where the call is inconclusive, the potency comes from a doubtful curve fit.
On the % scale 0 is the no-effect control and ±100 the full control effect; potency means the concentration at half of the fitted maximal effect.

Assay: qHTS screen for small molecules that inhibit ELG1-dependent DNA repair in human embryonic kidney (HEK293T) cells expressing luciferase-tagged ELG1; further: nearly all actives have a fitted effect of over 55% in size
Conditions: HEK293T ELG1-luciferase reporter, luminescence, 16 h, DNA damage induced by 5-fluorouridine; activity change, negative = inhibition: at 46.1 µM (top of the series)
Method in brief: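 Reporter activity after DNA damage by 5-fluorouridine is monitored. Compound-treated cells incubate 16 hr at 37 °C, then ONE-Glo is added for 30 min before luminescence reading.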
For `CCOC(=O)/C(C#N)=C/C=C1/C=CC=CN1C`, the Potency was inconclusive: 18.3 µM [activator, single point]. In the case of `Cc1ccc(CCNC(=O)C2CCCN(C(=O)c3cc4sccc4n3C)C2)cc1` (stereo unspecified), the Potency is reported as inconclusive: 35.5 µM [inhibitor, single point]. In the case of `COC(=O)c1cc(OC)c(OC)cc1NC(=O)CC1CCCCC1`, the Potency is reported as inconclusive: 29.1 µM [inhibitor, single point]. For `COc1ccc2c(c1)CCc1c(C(=O)NCCc3ccc(OC)c(OC)c3)noc1-2`, the Potency was inconclusive: 14.6 µM [inhibitor, single point]. With `COc1ccc(-c2[nH]ncc2CN2CCN(Cc3cccs3)CC2)cc1F` the Potency was active: 20.6 µM. For `COc1ccccc1C(=O)Nc1ccc2c(c1)CN(Cc1cnc(C)s1)CC2`, the Potency was inconclusive: 29.1 µM [inhibitor, single point]. With `Cc1ccc(-c2c(C(=O)NCc3ccccc3)oc(=O)c3ccccc23)cc1` the “activity change, negative = inhibition” value was inactive: -26.2%. With `CC(C)c1cc(C(=O)Nc2cc(Cl)ccc2O)no1` the Potency was inconclusive: 16.4 µM [activator, partial curve]. In the case of `Nc1cccc(-n2nnnc2CN2CCOCC2)c1`, the “activity change, negative = inhibition” value is reported as inactive: -9.11%. In the case of `O=C(COc1ccc(Cl)cc1Cl)NC1CCSC1=O` (stereo unspecified), the Potency is reported as inconclusive: 18.4 µM [activator, partial curve]. With `CC(C)CC1NC(=O)N(CC(=O)c2ccc3c(c2)OCCO3)C1=O` (stereo unspecified) the Potency was inconclusive: 11.6 µM [activator, partial curve]. In the case of `COCCNC(=O)c1ccc(N2CC3CC(C2)c2cccc(=O)n2C3)c(NC(=O)c2cc(OC)cc(OC)c2)c1` (stereo unspecified), the Potency is reported as inconclusive: 4.61 µM [inhibitor, full curve]. With `O=C(NN=C1c2ccccc2-c2ccccc21)c1ccccc1` the “activity change, negative = inhibition” value was inactive: 4.49%. With `CC(C)(C)C(=O)CSc1nc2c(c(-c3cccs3)c1C#N)CCC2` the “activity change, negative = inhibition” value was inactive: -0.679%. For `Cc1cc(C(=O)Nc2ccc(Cl)cc2)c(C)n1Cc1cccs1`, the Potency was inconclusive: 2.91 µM [activator, partial curve]. In the case of `CC(=O)N1Cc2ccccc2CC1C(=O)NCc1ccccc1F` (stereo unspecified), the “activity change, negative = inhibition” value is reported as inactive: 14.1%. With `COc1cc(/C=C(\C#N)C(=O)Nc2cccc(C(=O)O)c2)ccc1OCc1ccc(C)cc1` the Potency was inconclusive: 14.6 µM [activator, partial curve]. For `Cc1ccc(C)c(C(=O)CSc2nnnn2-c2cccnc2)c1`, the “activity change, negative = inhibition” value was inactive: 14%. For `COc1ccccc1-c1csc2ncnc(Sc3nnnn3C)c12`, the Potency was inconclusive: 18.3 µM [inhibitor, partial curve, poor fit]. In the case of `COc1ccc2occ(NC(C)=O)c2c1`, the Potency is reported as inconclusive: 25.9 µM [inhibitor, single point]. For `COc1ccc(CC(=O)Nc2ccccc2C(=O)NCCc2ccccc2)cc1`, the Potency was inconclusive: 29.1 µM [inhibitor, single point]. For `CSCC[C@H](NC(=O)[C@@H]1Cc2ccccc2CN1)C(=O)NC1CCCC1`, the Potency was inconclusive: 23.1 µM [activator, single point]. With `CC(=O)Nc1ccc(C(=O)N/N=C/c2ccccc2OCc2ccccc2)cc1` the Potency was inconclusive: 23.1 µM [inhibitor, single point]. With `O=C(C1CCCN(Cc2nc(-c3ccc(Cl)cc3)no2)C1)N1CCOCC1` (stereo unspecified) the Potency was inconclusive: 18.3 µM [inhibitor, single point]. In the case of `CCOc1ccc(NC(=S)NC(=O)c2c(Cl)cnn2CC)c([N+](=O)[O-])c1`, the “activity change, negative = inhibition” value is reported as inactive: 0.514%. For `COc1ccc(Nc2ncc(C(=O)N3CCN(Cc4ccccc4)CC3)c3ccccc23)cc1`, the Potency was active: 16.4 µM. In the case of `CN(NC(=S)Nc1ccc(OC(F)F)cc1)C(=S)Nc1ccc(OC(F)F)cc1`, the “activity change, negative = inhibition” value is reported as inactive: -0.703%. For `CCCCn1cc(C(=O)c2cc(Br)ccc2O)cc(C#N)c1=O`, the Potency was inconclusive: 4.11 µM [inhibitor, partial curve, poor fit]. With `Cc1cc(-n2c(C)cc(C(=O)CSc3nnc4sc5ccccc5n34)c2C)no1` the “activity change, negative = inhibition” value was inactive: 5.77%. In the case of `CCOc1ccc(N2C(=O)CC(SC(=NC)Nc3ccc(F)cc3)C2=O)cc1` (stereo unspecified), the Potency is reported as inconclusive: 32.6 µM [inhibitor, single point]. In the case of `CCOC(=O)CCCCC(=O)c1[nH]c(=O)[nH]c1CSc1nc(-c2ccccc2)c(C#N)c(=O)[nH]1`, the “activity change, negative = inhibition” value is reported as inactive: 2.2%. For `CC/C(=N\NC(=O)c1ccc2c(c1)OCO2)c1ccccc1`, the Potency was inconclusive: 32.6 µM [activator, single point]. With `CC(C)(C)Cc1nnc(NC(=O)CCc2ccccc2)s1` the Potency was inconclusive: 13 µM [activator, partial curve]. In the case of `C/C(CC(=O)Nc1ccccn1)=N\NC(=O)c1ccc(C)cc1`, the “activity change, negative = inhibition” value is reported as inactive: 23.2%. For `CC(C)CC1NC(=O)N(CC(=O)Nc2ccc(OC(F)F)cc2)C1=O` (stereo unspecified), the “activity change, negative = inhibition” value was inactive: 6.25%. With `Fc1ccc(-c2nnc(NC3=NCCCCC3)o2)cc1` the Potency was inconclusive: 0.164 µM [activator, partial curve, poor fit]. In the case of `Cc1ccc(S(=O)(=O)N2CCCCC2)cc1C(=O)Nc1cccnc1`, the “activity change, negative = inhibition” value is reported as inactive: 11.5%. In the case of `Cc1ccc(S(=O)(=O)NC(=NC(Cc2ccccc2)C(=O)O)c2ccccc2)cc1` (stereo unspecified), the “activity change, negative = inhibition” value is reported as inactive: 0.709%. For `COc1ccc(SC[C@H](Cc2ccccc2)N2CC[C@@H](NC(=O)OCc3ccccc3)CCC2=O)cc1`, the Potency was inconclusive: 23.1 µM [inhibitor, single point]. With `COc1ccc(C(O)(C(C)C)C(CN2CCOCC2)c2ccccc2)cc1` (stereo unspecified) the Potency was inconclusive: 25.9 µM [inhibitor, partial curve, poor fit]. In the case of `O=C(Nc1ccc(N2CCOCC2)cc1)c1ccc([N+](=O)[O-])cc1`, the Potency is reported as inconclusive: 4.11 µM [inhibitor, full curve]. For `COc1ccc(-c2csc(NC(=O)CCNC(=O)c3ccco3)n2)cc1OC`, the “activity change, negative = inhibition” value was inactive: -22.8%. With `CC1(C)Cc2cccc(Oc3ccc(S(=O)(=O)N4CCCCC4)cn3)c2O1` the Potency was inconclusive: 32.6 µM [inhibitor, partial curve, poor fit]. In the case of `CSC(SC)=C(C(C)=O)C(=O)c1ccc(C)cc1`, the Potency is reported as inconclusive: 13 µM [activator, partial curve, poor fit]. For `Cc1cccc(C)c1NC(=O)CN(C)C(=O)Cc1cccc(C(F)(F)F)c1`, the Potency was inconclusive: 23.1 µM [activator, partial curve, poor fit]. For `Cc1ccn(-c2cccc(-n3ccc(C)n3)n2)n1`, the Potency was inconclusive: 8.2 µM [activator, partial curve]. In the case of `CSc1cccc(CN2CCC(Oc3cccc(C(=O)N4CCCC4)c3)CC2)c1`, the Potency is reported as inconclusive: 29.1 µM [inhibitor, single point]. With `COc1ccccc1C(=O)NCC1CCN(c2ccc(S(=O)(=O)N3CCOCC3)cc2)CC1` the Potency was inconclusive: 29.1 µM [inhibitor, single point]. With `CC(C)N1CCN(Cc2ccc(Sc3nncn3C)o2)CC1CCO` (stereo unspecified) the Potency was inconclusive: 16.4 µM [activator, single point]. In the case of `Cc1ccc2[nH]c3c(c2c1)CN(C(=O)CN1CCCCC1)CC3`, the “activity change, negative = inhibition” value is reported as inactive: -9.45%. In the case of `S=c1[nH]nc(-c2ccccc2)n1/N=C/c1ccc(-c2ccccc2Cl)o1`, the “activity change, negative = inhibition” value is reported as inactive: 21.9%. In the case of `CC(C)N(C(=O)Nc1ccc2nccnc2c1)C(C)C`, the “activity change, negative = inhibition” value is reported as inactive: 13.8%. For `Cc1nc2cc(NS(=O)(=O)c3ccccc3F)ccc2s1`, the “activity change, negative = inhibition” value was inactive: 8.29%. In the case of `CCc1ccc(NC(=O)[C@H](C)NC(=O)C2CCN(C(=O)[C@@H](N)CC(C)C)CC2)cc1`, the Potency is reported as inconclusive: 25.9 µM [activator, single point]. In the case of `COc1ccc(NC(=O)CCC(=O)Nc2ccc3nc(N4CCOCC4)cc(C)c3c2)c(OC)c1`, the Potency is reported as inconclusive: 5.8 µM [activator, partial curve, poor fit]. With `COCCCn1c(C)cc(C(=O)COC(=O)C23CC4CC(CC(O)(C4)C2)C3)c1C` the Potency was inconclusive: 5.8 µM [activator, partial curve]. With `O=[N+]([O-])c1ccc(N2CCN(C(=S)Nc3ccc(F)cc3F)CC2)cc1` the Potency was inconclusive: 16.4 µM [inhibitor, partial curve, poor fit]. In the case of `Nc1c(C(=O)Nc2ccccc2)sc2nc3c(c(-c4ccco4)c12)CCC3`, the Potency is reported as inconclusive: 18.4 µM [activator, partial curve, poor fit]. For `Cc1ccccc1CNC(=O)Cc1ccccc1[N+](=O)[O-]`, the Potency was inconclusive: 23.1 µM [activator, partial curve]. In the case of `O=S(=O)(/N=C(/Nc1ccccn1)c1ccc(Cl)cc1)c1ccc(Cl)cc1`, the Potency is reported as inconclusive: 18.4 µM [activator, partial curve]. With `CSCCC(NC(=O)C1CCCCC1)c1nc2ccccc2[nH]1` (stereo unspecified) the “activity change, negative = inhibition” value was inactive: 1.77%. In the case of `O=C1/C(=C/c2cccc(Cl)c2)CSc2sccc21`, the “activity change, negative = inhibition” value is reported as inactive: -9.77%. For `O=C(COC(=O)c1ccccc1Br)NCc1cccs1`, the Potency was inconclusive: 9.2 µM [activator, single point]. With `CC(C)(C)C(=O)Nc1ccc(/C=C/C(=O)c2ccco2)cc1` the Potency was inconclusive: 3.55 µM [activator, partial curve, poor fit]. For `Cc1ccc(CSCC(=O)N2CCN(c3ccc(F)cc3)CC2)cc1`, the “activity change, negative = inhibition” value was inactive: -3.64%. With `CCSc1nnc(-c2cc(Br)ccc2N)c(=O)[nH]1` the “activity change, negative = inhibition” value was inactive: -8.2%. In the case of `CCn1c(SCC(=O)Nc2ccc3c(c2)oc2ccccc23)nnc1-c1ccc(N)cc1`, the “activity change, negative = inhibition” value is reported as inactive: -9.12%. For `O=C(c1ccc(CS(=O)Cc2ccccc2Cl)o1)N1CCN(c2ccccn2)CC1` (stereo unspecified), the Potency was active: 20.6 µM. With `CC(C)CN(Cc1cc(=O)oc2cc3c(cc12)CCCC3)CC(C)C` the Potency was inconclusive: 29.1 µM [activator, single point]. With `Cn1c(-c2ccccc2)cc2onc(-c3ccccc3)c2c1=O` the activity change, negative = inhibition was inconclusive: 11.3% [activator]. With `COc1ccc(/C=N/NC(=O)c2cccnc2)cc1CN1CCN(c2ccc(F)cc2)CC1` the Potency was inconclusive: 20.6 µM [inhibitor, single point].
